Data on one sequence can be found in publication PMC8384837.

Substitutions are numbered along the chain they refer to. Some of the results follow. For some of these results: At the low end of the ranking the order means little.

What all share (details): yeast three-hybrid, YBZ-1, SC-Leu-His + 0.5 mM 3-AT, 4 days
The target in test [1] is T1, PUM1 PUF domain R2-GWG N899G + Y900W + Q903G (UniProt Q14671).
T1 sequence: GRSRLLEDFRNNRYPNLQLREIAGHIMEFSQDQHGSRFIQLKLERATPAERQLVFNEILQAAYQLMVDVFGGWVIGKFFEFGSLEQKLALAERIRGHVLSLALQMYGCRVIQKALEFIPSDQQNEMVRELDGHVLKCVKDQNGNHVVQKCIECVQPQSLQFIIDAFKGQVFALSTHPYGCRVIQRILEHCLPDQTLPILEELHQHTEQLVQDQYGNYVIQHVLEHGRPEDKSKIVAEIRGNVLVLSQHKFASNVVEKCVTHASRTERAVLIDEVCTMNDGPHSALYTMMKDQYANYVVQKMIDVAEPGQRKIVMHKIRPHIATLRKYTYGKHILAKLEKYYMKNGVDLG

Test [2] concerns the target T2, PUM1 PUF domain R2-GWW N899G + Y900W + Q903W (UniProt Q14671).
T2 sequence: T1 sequence with G76W

Test [3] deals with T3, PUM1 PUF domain R2-GWY N899G + Y900W + Q903Y (UniProt Q14671).
T3 sequence: T1 sequence with G76Y

The target of test [4] is T4, PUM1 PUF domain R2-IFA N899I + Y900F + Q903A (Homo sapiens) (UniProt Q14671).
T4 sequence: T1 sequence with G72I, W73F, G76A

For test [5], the target named is T5, PUM1 PUF domain R2-IVF N899I + Y900V + Q903F (UniProt Q14671).
T5 sequence: T1 sequence with G72I, W73V, G76F

The target in test [6] is T6, PUM1 PUF domain R2-KCA N899K + Y900C + Q903A (UniProt Q14671).
T6 sequence: T1 sequence with G72K, W73C, G76A

In test [7] the target is T7, PUM1 PUF domain R2-KFG N899K + Y900F + Q903G (UniProt Q14671).
T7 sequence: T1 sequence with G72K, W73F

In test [8] the target is T8, PUM1 PUF domain R2-KIG N899K + Y900I + Q903G (UniProt Q14671).
T8 sequence: T1 sequence with G72K, W73I

For test [9], the target named is T9, PUM1 PUF domain R2-KLQ N899K + Y900L (UniProt Q14671).
T9 sequence: T1 sequence with G72K, W73L, G76Q

Test [10] deals with T10, PUM1 PUF domain R2-KLS N899K + Y900L + Q903S (UniProt Q14671).
T10 sequence: T1 sequence with G72K, W73L, G76S

The target in test [11] is T11, PUM1 PUF domain R2-KLV N899K + Y900L + Q903V (UniProt Q14671).
T11 sequence: T1 sequence with G72K, W73L, G76V

Test [12] concerns the target T12, PUM1 PUF domain R2-KRA N899K + Y900R + Q903A (UniProt Q14671).
T12 sequence: T1 sequence with G72K, W73R, G76A

Test [13] has as its target T13, PUM1 PUF domain R2-KRG N899K + Y900R + Q903G (Homo sapiens) (UniProt Q14671).
T13 sequence: T1 sequence with G72K, W73R

Test [14] has as its target T14, PUM1 PUF domain R2-KVA N899K + Y900V + Q903A (UniProt Q14671).
T14 sequence: T1 sequence with G72K, W73V, G76A

The target of test [15] is T15, PUM1 PUF domain R2-LFA N899L + Y900F + Q903A (UniProt Q14671).
T15 sequence: T1 sequence with G72L, W73F, G76A

The target of test [16] is T16, PUM1 PUF domain R2-LFC N899L + Y900F + Q903C (UniProt Q14671).
T16 sequence: T1 sequence with G72L, W73F, G76C

For test [17], the target named is T17, PUM1 PUF domain R2-LFG N899L + Y900F + Q903G (UniProt Q14671).
T17 sequence: T1 sequence with G72L, W73F

In test [18] the target is T18, PUM1 PUF domain R2-LFI N899L + Y900F + Q903I (UniProt Q14671).
T18 sequence: T1 sequence with G72L, W73F, G76I

For test [19], the target named is T19, PUM1 PUF domain R2-LFL N899L + Y900F + Q903L (UniProt Q14671).
T19 sequence: T1 sequence with G72L, W73F, G76L

Test [20] addresses T20, PUM1 PUF domain R2-LFS N899L + Y900F + Q903S (UniProt Q14671).
T20 sequence: T1 sequence with G72L, W73F, G76S

Test [21] has as its target T21, PUM1 PUF domain R2-LFV N899L + Y900F + Q903V (Homo sapiens) (UniProt Q14671).
T21 sequence: T1 sequence with G72L, W73F, G76V

Test [22] has as its target T22, PUM1 PUF domain R2-LHR N899L + Y900H + Q903R (Homo sapiens) (UniProt Q14671).
T22 sequence: T1 sequence with G72L, W73H, G76R

In the case of “GGCUAGAACUAGUGGAUCCCCCGGCGCCCGGCGGCUCGAGCCCGGGUAAGUGUAAACAGUCUGCAUGCCGCCGGGCGCCAUGCCUGCAGGUCGACUCUAGAAAACAUG”, the binding signal (log2 enrichment (interaction score)) in [1] is under -8.23; in test [2], under -9.24; in test [3] it was under -8.31; in test [4], under -6.04; in test [5], under -6.82; in test [6], under -6.62. In addition, the binding signal (log2 enrichment (interaction score)) in test [7] is under -7.01; in [8], under -6.62; in [9], under -6.8; in test [10] it was under -10.7; in [11], under -7.72; in test [12] it was under -6.78. Besides, the binding signal (log2 enrichment (interaction score)) was -0.56 in test [13]; under -5.48 in [14]; under -9.04 in [15]; under -7.2 in [16]; under -10.4 in test [17]; under -6.44 in [18]. Further, the binding signal (log2 enrichment (interaction score)) is under -8.54 in test [19], under -9.88 in test [20], -5.27 in test [21] and under -6.02 in [22].
